Consider eight molecules from paper doi:10.1101/2024.06.06.597704.

These are yes or no findings as the source states them, for the method shown. Binding seen in cells or lysates may run through a third protein. These calls come from enrichment with a bait or labelling near it, and not all partners need be listed.

To fix the notation:
T1: ECT2^WT-mCherry (Arabidopsis thaliana) (UniProt Q9LJE5)
T1 sequence: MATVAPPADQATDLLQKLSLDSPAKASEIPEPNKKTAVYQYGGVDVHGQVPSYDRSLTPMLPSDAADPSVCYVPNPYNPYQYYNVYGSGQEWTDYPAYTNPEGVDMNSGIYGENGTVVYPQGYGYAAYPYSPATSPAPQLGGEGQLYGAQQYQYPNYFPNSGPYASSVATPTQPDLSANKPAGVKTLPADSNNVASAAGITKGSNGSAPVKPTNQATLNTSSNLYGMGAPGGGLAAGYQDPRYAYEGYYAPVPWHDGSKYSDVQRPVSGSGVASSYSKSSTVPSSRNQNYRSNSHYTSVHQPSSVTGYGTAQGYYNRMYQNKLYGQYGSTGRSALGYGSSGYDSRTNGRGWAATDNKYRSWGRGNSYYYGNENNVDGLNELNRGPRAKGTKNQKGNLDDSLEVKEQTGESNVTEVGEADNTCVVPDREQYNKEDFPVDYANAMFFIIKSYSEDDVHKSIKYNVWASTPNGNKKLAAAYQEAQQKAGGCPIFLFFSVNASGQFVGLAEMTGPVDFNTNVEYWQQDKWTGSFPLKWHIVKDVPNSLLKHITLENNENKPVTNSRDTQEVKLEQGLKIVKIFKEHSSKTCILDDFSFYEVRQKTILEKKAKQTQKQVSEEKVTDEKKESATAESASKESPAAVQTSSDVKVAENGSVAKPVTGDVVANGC

B1: ECT4 (protein, UniProt A0A1P8AS03 1-605)
chain: MSTVAPPADQAADVLKKLSLDSKSRTLEIPEPTKKTGVYQYGAMDSNGQVPSFDRSLSPMLPSDALDPSVFYVPNVYQQPYYYGYGSDYTGYTNSESVDMTSGAYGENASLVYPQGYGYAAFPYSPATSPAPQLGGDGQLYGAQQYQYPFPLTASSGPFASSVPASTQSKLSTNKAANSASAGIPKGMNGSAPVKPLNQSALYGNSALGGGLAAGYQDPRYSYDGFYTPVSWHDGSNFSDVQRSVSGSGVASSYSKANNNVPATRNQNSSSNSHYTSMYQPASMTGYAAQGYYDRVSPNKSYGQYGSTVRSGMGYGSSGYGSRTNERGWLNTDNKYRSRGRGNSYFYGNENIDGLNELNRGPRAKGTKATEEVSSEEVKKQTFDESNTEETVTCVLPDREECNRDDFPVEYKDAKFFIIKSYSEDDVHKSIKYNVWASTPNGNKKLDAAYQEAQQKSSGCPVFLFFSVNASGQFIGLAEMKGPVDFNKNIEYWQQDKWTGSFPLKWHILKDVPNSLLKHITLEYNENKPVTNSRDTQEVKLEQGLKVVKIFKEHNSKTCILDDFSFYEARQKTILEKKAKQQQSQKQVWEGKTNDEKPGTVDSTM
B2: ECT1 (protein, UniProt Q3MK94 1-428)
chain: MAGAASSDRLVTSFPLLDTADLFQDLSLGSDANEVPMNFTKGSFQHPYGHAPYGASSHGSERRPNMNAGNLLNGGDSIGSYPWGYIPANYPSGGYPDPRFGYDRNSNHSSFSHLMNPHSSQEVPSFDQLGYNDHLYSNHGLYGLYGNVIDSGHAYGTFGYDSWKLGRGWYPVDGYRKTRSFNHGRGYSDEKADRLNELCRGPRSSDFKNPQVLNSSMLDAMKQDVSAVDLQRYNGENFPESFVKAKFFVIKSYSEDDVHNCIKYGAWSSTPTGNKKLNAAYYEAKENSQECPVYLLFSVNASGQFVGLAEMVGPVDFNKTMEYWQQDKWIGCFPVKWHIIKDIPNSLLRHITLANNENKPVTNSRDTQEVNLEHGTKIIKIFKEYMSKTCILDDYKFYETRQKIIRDKKIKQKKQALDGASGETINLS
B3: ECT2 (protein, UniProt Q9LJE5 1-667)
chain: T1 sequence
B4: ECT3 (protein, UniProt F4K1Z0 1-495)
chain: MANPDHVSDVLHNLSIDPTTKALAPDSETKLQGAYGGNGNDFLLNDELVEATKIGKPSLLSKDGGVTKDKGSNLKKLGYQSAAYNAKGSYGKGAYAYGYYPPAYQYPRHGYTGSYASGKTNLQYQYLTQQGRSAGNGQSYGGYMDNIYSNYGMCGPYTNGYGYGSYGYDSWKYMPNWYAVNNTYKPRNGYHGYGKENIEGLNEMNRGPRAKGFNSQDGSKVMAVSLKEQRVTETEKLSEDVSLLDPKDYNKIDFPETYTEAKFYVIKSYSEDDIHKSIKYSVWSSTPNGNKKLDASYNEAKQKSDGCPVFLLFSVNTSGQFVGLAEMVGPVDFNKTVEYWQQDKWIGCFPVKWHFVKDIPNSSLRHITLENNENKPVTNSRDTQEVKLEQGIKVIKIFKDHASKTCILDDFEFYENRQKIIQERKSKHLQIKKQTLVANADKGVMSKINLVKPQESTTASEDAAALGVAAEVTKESKVVKETELPVEKNAVATAC

The target of the first test is T1, ECT2^WT-mCherry (Arabidopsis thaliana). As to the kind of experiment: affinity purification with mass spectrometry.
Regarding ALBA2, the binding result is “binds”.

On to ALBA5, for which the binding entry was “binds”.

In the case of ALBA1, the binding result is “binds”.

On to ALBA4, for which the binding result is given as “binds”.

A further test addresses ALBA4-GFP (Arabidopsis thaliana). The experiment in a line: affinity purification with mass spectrometry.
As to B1, the binding entry is on record as “binds”.

Regarding B2, the binding result is on record as “binds”.

Consider B3, for which the binding entry is on record as “binds”.

Turning to B4, the binding entry is given as “binds”.
